Results on one molecule are retold here after US20130315927A1 (Novartis, published 2013).

Amino acid sequences for entries named in this document (tags omitted). Residues count along the entry.
UniProt Q9NSA1, residues 29-209: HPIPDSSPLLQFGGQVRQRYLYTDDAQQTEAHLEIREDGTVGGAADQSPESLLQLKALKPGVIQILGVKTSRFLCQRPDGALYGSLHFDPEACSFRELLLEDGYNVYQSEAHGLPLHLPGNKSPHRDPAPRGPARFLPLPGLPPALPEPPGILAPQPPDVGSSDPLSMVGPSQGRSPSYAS

Results are given in words; binding and its absence hold for the method and conditions named.

One experiment addresses T1, hFgfr4 hFc (human, UniProt P22455).
T1 sequence (fusion chain, looked up): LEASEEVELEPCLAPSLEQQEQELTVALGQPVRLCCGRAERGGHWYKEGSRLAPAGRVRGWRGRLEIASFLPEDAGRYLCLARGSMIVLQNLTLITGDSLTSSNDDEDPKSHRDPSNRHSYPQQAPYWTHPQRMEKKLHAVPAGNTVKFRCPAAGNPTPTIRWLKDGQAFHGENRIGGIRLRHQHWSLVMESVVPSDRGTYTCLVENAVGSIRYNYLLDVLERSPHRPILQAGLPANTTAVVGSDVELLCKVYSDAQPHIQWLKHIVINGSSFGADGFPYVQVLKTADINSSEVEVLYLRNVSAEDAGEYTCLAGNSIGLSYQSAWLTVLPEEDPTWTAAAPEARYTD
Briefly: specificity ELISA, antigen coated at 88 ng per well, absorbance 650 nm.

A further experiment concerns the target hFGF21 mFc (human) (UniProt Q9NSA1). The experiment is described as above.

B1: mouse monoclonal antibody MAB1 (antibody, V domains shown)
VH: QVTLKESGPGILQPSQTLSLTCSFSGFSLSTSGMGVGWIRQPSGEGLEWLADIWWDDNKYYNPSLKSRLTVSKDTSSNQVFLKITSVDTADTATYYCALITTEGGFAYWGQGTLVTVSA
VL: DIVLTQSPATLSVTPGDSVSLSCRASQSINNNLHWYQQKSHESPRLLIKFASRSISGIPSKFSGSGSGTDFTLSINSVETEDFGMYFCQQSNYWPLTFGAGTNLELI
notes: also called parent mouse monoclonal antibody; murine anti-human Pcsk9 IgG1-kappa monoclonal antibody
B1: the binding result with hFgfr4 hFc and with hFGF21 mFc (human) was “no binding (tested: 2 µg/mL (single concentration))” each time.
